Results are given in words; binding and its absence hold for the method and conditions named. In cells and extracts the contact can be indirect. These calls come from enrichment with a bait or labelling near it, and not all partners need be listed.

The chains behind the UniProt entries cited, without tags or fusion partners. Where a name states a change or a piece, a line headed by the entry shows the natural chain unless it says otherwise.
UniProt P62491: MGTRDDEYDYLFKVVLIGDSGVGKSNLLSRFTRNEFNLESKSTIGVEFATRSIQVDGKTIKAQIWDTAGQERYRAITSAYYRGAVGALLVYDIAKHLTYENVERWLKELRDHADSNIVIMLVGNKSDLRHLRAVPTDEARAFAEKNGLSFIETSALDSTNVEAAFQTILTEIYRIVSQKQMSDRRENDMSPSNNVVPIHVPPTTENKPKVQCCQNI
UniProt Q7L804: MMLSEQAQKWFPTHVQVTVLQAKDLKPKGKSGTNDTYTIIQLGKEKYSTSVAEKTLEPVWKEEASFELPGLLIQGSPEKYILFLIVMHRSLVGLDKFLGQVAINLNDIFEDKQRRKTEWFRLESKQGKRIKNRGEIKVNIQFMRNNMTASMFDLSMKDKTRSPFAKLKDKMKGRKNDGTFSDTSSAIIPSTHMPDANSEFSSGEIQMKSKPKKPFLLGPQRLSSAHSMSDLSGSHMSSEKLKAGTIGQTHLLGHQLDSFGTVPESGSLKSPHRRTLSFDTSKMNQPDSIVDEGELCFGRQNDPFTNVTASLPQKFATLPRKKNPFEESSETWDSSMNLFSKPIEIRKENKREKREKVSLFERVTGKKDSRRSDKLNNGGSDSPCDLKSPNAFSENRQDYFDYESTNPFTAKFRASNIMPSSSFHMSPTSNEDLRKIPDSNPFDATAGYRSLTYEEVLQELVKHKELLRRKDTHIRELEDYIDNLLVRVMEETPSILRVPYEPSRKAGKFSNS

B1: Rab11 family-interacting protein 5 (FIP5) (protein, UniProt Q9BXF6 1-653)
chain: MALVRGAEPAAGPSRWLPTHVQVTVLRARGLRGKSSGAGSTSDAYTVIQVGREKYSTSVVEKTHGCPEWREECSFELPPGALDGLLRAQEADAGPAPWAASSAAACELVLTTMHRSLIGVDKFLGQATVALDEVFGAGRAQHTQWYKLHSKPGKKEKERGEIEVTIQFTRNNLSASMFDLSMKDKPRSPFSKIRDKMKGKKKYDLESASAILPSSAIEDPDLGSLGKMGKAKGFFLRNKLRKSSLTQSNTSLGSDSTLSSASGSLAYQGPGAELLTRSPSRSSWLSTEGGRDSAQSPKLFTHKRTYSDEANQMRVAPPRALLDLQGHLDAASRSSLCVNGSHIYNEEPQGPVRHRSSISGSLPSSGSLQAVSSRFSEEGPRSTDDTWPRGSRSNSSSEAVLGQEELSAQAKVLAPGASHPGEEEGARLPEGKPVQVATPIVASSEAVAEKEGARKEERKPRMGLFHHHHQGLSRSELGRRSSLGEKGGPILGASPHHSSSGEEKAKSSWFGLREAKDPTQKPSPHPVKPLSAAPVEGSPDRKQSRSSLSIALSSGLEKLKTVTSGSIQPVTQAPQAGQMVDTKRLKDSAVLDQSAKYYHLTHDELISLLLQRERELSQRDEHVQELESYIDRLLVRIMETSPTLLQIPPGPPK
B2: ARHGAP1, a Rho GTPase-activating protein (protein, UniProt Q07960 1-439)
chain: MDPLSELQDDLTLDDTSEALNQLKLASIDEKNWPSDEMPDFPKSDDSKSSSPELVTHLKWDDPYYDIARHQIVEVAGDDKYGRKIIVFSACRMPPSHQLDHSKLLGYLKHTLDQYVESDYTLLYLHHGLTSDNKPSLSWLRDAYREFDRKYKKNIKALYIVHPTMFIKTLLILFKPLISFKFGQKIFYVNYLSELSEHVKLEQLGIPRQVLKYDDFLKSTQKSPATAPKPMPPRPPLPNQQFGVSLQHLQEKNPEQEPIPIVLRETVAYLQAHALTTEGIFRRSANTQVVREVQQKYNMGLPVDFDQYNELHLPAVILKTFLRELPEPLLTFDLYPHVVGFLNIDESQRVPATLQVLQTLPEENYQVLRFLTAFLVQISAHSDQNKMTNTNLAVVFGPNLLWAKDAAITLKAINPINTFTKFLLDHQGELFPSPDPSGL

The test deals with myc-tagged R118G-mutated BirA (BirA*)-fused Rab11a (UniProt P62491). Description: proximity labelling.
In the case of “Rab11 family-interacting protein 2 (FIP2) (from UniProt Q7L804 1-512)”, the binding entry is recorded as “binds”.

On to B1, for which the binding result is “binds”.

On to B2, for which the binding result is on record as “binds”.

Source of the values: paper PMC9239208.
